Source: patent publication US8138119B2, “Alkoxyalkyl spirocyclic tetramic acids and tetronic acids” (Bayer Cropscience AG, priority 2005, dated 2012)
Some of these results come from one statement about several compounds together.

Assays:
Format in all cases: in vivo
[1] = test system: greenhouse rat spider mite (Tetranychus urticae); experiment: Tetranychus test; OP resistant (TETRUR spray treatment); details: 100 g/ha of a.i., after 5 d, bean leaf disks sprayed
Lolium multiflorum = experiment: Herbicidal post-emergence action; details: about 3 weeks
Echinochloa crusgalli = experiment: Herbicidal post-emergence action; details: about 3 weeks; for herbicidal activity against Echinochloa crus-galli: 80 g/ha of a.i.; for herbicidal activity against Echinochloa crusgalli: 320 g/ha of a.i.
Setaria viridis = experiment: Herbicidal post-emergence action; details: about 3 weeks
[2] = test system: green peach aphid (Myzus persicae); experiment: Myzus test (MYZUPE spray treatment); details: 500 g/ha of a.i., after 5 d, Chinese cabbage disks sprayed
[3] = test system: larvae of the mustard beetle (Phaedon cochleariae); experiment: Phaedon test (PHAECO spray treatment); details: 500 g/ha of a.i., after 7 d, Chinese cabbage disks sprayed
[4] = test system: caterpillars of the armyworm (Spodoptera frugiperda); experiment: Spodoptera frugiperda test (SPODFR spray treatment); details: 500 g/ha of a.i., after 7 d, maize leaf disks sprayed
Avena sativa = experiment: Herbicidal post-emergence action; details: 320 g/ha of a.i., about 3 weeks

COCCC1CCCC2(C1)NC(=O)C(c1c(C)cc(Br)cc1C)=C2O (centres unmarked) [Example I-1-a-41]
≥ 80%: efficacy (spider mites killed) [1] | herbicidal activity against Lolium multiflorum (Lolium multiflorum; 80 g/ha of a.i.) | herbicidal activity against Echinochloa crus-galli (Echinochloa crusgalli) | herbicidal activity against Setaria viridis (Setaria viridis; 80 g/ha of a.i.) | efficacy (aphids killed) [2] | efficacy (beetle larvae killed) [3]

COCC1CCC2(CC1)OC(=O)C(c1c(C)ccc(-c3ccc(Cl)cc3)c1C)=C2O (centres unmarked) [Example I-2-a-17]
≥ 80%: efficacy (spider mites killed) [1] | efficacy (caterpillars killed) [4] | efficacy (aphids killed) [2] | efficacy (beetle larvae killed) [3]

COCC1CCC2(CC1)NC(=O)C(c1cc(C)ccc1C)=C2OC(=O)C(C)C (single isomer, unassigned) [Example I-1-b-16]
≥ 80%: efficacy (spider mites killed) [1] | efficacy (caterpillars killed) [4] | efficacy (aphids killed) [2] | efficacy (beetle larvae killed) [3]

COCC1CCC2(CC1)OC(=O)C(c1cc(-c3ccc(Cl)cc3)ccc1C)=C2O (centres unmarked) [Example I-2-a-8]
≥ 80%: efficacy (spider mites killed) [1] | efficacy (caterpillars killed) [4] | efficacy (aphids killed) [2] | efficacy (beetle larvae killed) [3]

COCC1CCCC2(C1)NC(=O)C(c1cc(-c3ccc(Cl)cc3)ccc1C)=C2O (single isomer, unassigned) [Example I-1-a-20]
≥ 80%: efficacy (spider mites killed) [1]

CCOC(=O)OC1=C(c2c(Cl)cc(Cl)cc2CC)C(=O)NC12CCCC(COC)C2 (single isomer, unassigned) [Example I-1-c-12]
≥ 80%: efficacy (spider mites killed) [1] | herbicidal activity against Avena sativa (Avena sativa) | herbicidal activity against Lolium multiflorum (Lolium multiflorum; 80 g/ha of a.i.) | herbicidal activity against Lolium multiflorum (Lolium multiflorum; 320 g/ha of a.i.) | herbicidal activity against Echinochloa crus-galli (Echinochloa crusgalli) | herbicidal activity against Echinochloa crusgalli (Echinochloa crusgalli) | herbicidal activity against Setaria viridis (Setaria viridis; 80 g/ha of a.i.) | herbicidal activity against Setaria viridis (Setaria viridis; 320 g/ha of a.i.) | efficacy (aphids killed) [2]

COCCC1CCCC2(C1)NC(=O)C(c1c(Cl)cc(C)cc1OC)=C2O (centres unmarked) [Example I-1-a-46]
≥ 80%: efficacy (spider mites killed) [1] | herbicidal activity against Avena sativa (Avena sativa) | herbicidal activity against Lolium multiflorum (Lolium multiflorum; 80 g/ha of a.i.) | herbicidal activity against Lolium multiflorum (Lolium multiflorum; 320 g/ha of a.i.) | herbicidal activity against Echinochloa crus-galli (Echinochloa crusgalli) | herbicidal activity against Echinochloa crusgalli (Echinochloa crusgalli) | herbicidal activity against Setaria viridis (Setaria viridis; 80 g/ha of a.i.) | herbicidal activity against Setaria viridis (Setaria viridis; 320 g/ha of a.i.) | efficacy (aphids killed) [2]

COCCC1CCCC2(C1)NC(=O)C(c1c(C)ccc(-c3ccc(Cl)cc3)c1C)=C2O (centres unmarked) [Example I-1-a-42]
≥ 80%: efficacy (spider mites killed) [1] | herbicidal activity against Lolium multiflorum (Lolium multiflorum; 80 g/ha of a.i.) | efficacy (caterpillars killed) [4] | herbicidal activity against Echinochloa crus-galli (Echinochloa crusgalli) | herbicidal activity against Setaria viridis (Setaria viridis; 80 g/ha of a.i.) | efficacy (aphids killed) [2] | efficacy (beetle larvae killed) [3]

CCOC(=O)OC1=C(c2c(C)cc(Cl)cc2Cl)C(=O)NC12CCCC(COC)C2 (single isomer, unassigned) [Example I-1-c-10]
≥ 80%: efficacy (spider mites killed) [1] | efficacy (aphids killed) [2] | efficacy (beetle larvae killed) [3]

COCCC1CCC2(CC1)NC(=O)C(c1cc(-c3ccc(Cl)cc3)ccc1C)=C2O (single isomer, unassigned) [Example I-1-a-52]
≥ 80%: efficacy (spider mites killed) [1] | efficacy (caterpillars killed) [4] | efficacy (aphids killed) [2] | efficacy (beetle larvae killed) [3]

COCC1CCC2(CC1)NC(=O)C(c1cc(-c3ccc(Cl)cc3)ccc1Cl)=C2O (centres unmarked) [Example I-1-a-34]
≥ 80%: efficacy (caterpillars killed) [4] | efficacy (aphids killed) [2] | efficacy (beetle larvae killed) [3]

COCC1CCCC2(C1)NC(=O)C(c1c(C)cc(Cl)cc1Cl)=C2OC(=O)C(C)C (single isomer, unassigned) [Example I-1-b-11]
≥ 80%: efficacy (spider mites killed) [1] | efficacy (aphids killed) [2]

COCC1CCC2(CC1)NC(=O)C(c1cc(C)ccc1Br)=C2OC(=O)C1CC1 (single isomer, unassigned) [Example I-1-b-23]
≥ 80%: efficacy (spider mites killed) [1] | efficacy (caterpillars killed) [4] | efficacy (aphids killed) [2] | efficacy (beetle larvae killed) [3]

CCOC(=O)OC1=C(c2c(C)cc(Cl)cc2C)C(=O)NC12CCC(CCOC)CC2 (single isomer, unassigned) [Example I-1-c-33]
≥ 80%: efficacy (spider mites killed) [1] | efficacy (caterpillars killed) [4] | efficacy (aphids killed) [2] | efficacy (beetle larvae killed) [3]

CCOC(=O)OC1=C(c2cc(-c3ccc(Cl)cc3)ccc2C)C(=O)OC12CCC(COC)CC2 (centres unmarked) [Example I-2-c-2]
≥ 80%: efficacy (spider mites killed) [1] | efficacy (caterpillars killed) [4] | efficacy (aphids killed) [2] | efficacy (beetle larvae killed) [3]

COCC1CCCC2(C1)NC(=O)C(c1c(C)cc(C)cc1OC)=C2OC(=O)C(C)C (single isomer, unassigned) [Example I-1-b-9]
≥ 80%: efficacy (spider mites killed) [1] | herbicidal activity against Avena sativa (Avena sativa) | herbicidal activity against Lolium multiflorum (Lolium multiflorum; 80 g/ha of a.i.) | herbicidal activity against Lolium multiflorum (Lolium multiflorum; 320 g/ha of a.i.) | herbicidal activity against Echinochloa crus-galli (Echinochloa crusgalli) | herbicidal activity against Echinochloa crusgalli (Echinochloa crusgalli) | herbicidal activity against Setaria viridis (Setaria viridis; 80 g/ha of a.i.) | herbicidal activity against Setaria viridis (Setaria viridis; 320 g/ha of a.i.)

COCC1CCCC2(C1)OC(=O)C(c1c(C)cc(C)cc1C)=C2O (centres unmarked) [Example I-2-a-6]
≥ 80%: efficacy (spider mites killed) [1] | efficacy (aphids killed) [2]

CCOC(=O)OC1=C(c2cc(C)ccc2Br)C(=O)NC12CCC(COC)CC2 (single isomer, unassigned) [Example I-1-c-21]
≥ 80%: efficacy (spider mites killed) [1] | efficacy (aphids killed) [2] | efficacy (beetle larvae killed) [3]

COCC1CCC2(CC1)OC(=O)C(c1cc(-c3ccc(Cl)cc3)ccc1Cl)=C2O (centres unmarked) [Example I-2-a-16]
≥ 80%: efficacy (aphids killed) [2] | efficacy (beetle larvae killed) [3]

COCC1CCCC2(C1)OC(=O)C(c1c(C)cc(Br)cc1C)=C2O (centres unmarked) [Example I-2-a-3]
≥ 80%: efficacy (spider mites killed) [1] | efficacy (aphids killed) [2]

CCOC(=O)OC1=C(c2cc(C)c(C)cc2C)C(=O)NC12CCC(COC)CC2 (single isomer, unassigned) [Example I-1-c-23]
≥ 80%: efficacy (spider mites killed) [1] | efficacy (caterpillars killed) [4] | efficacy (aphids killed) [2] | efficacy (beetle larvae killed) [3]

COCC1CCC2(CC1)NC(=O)C(c1cc(C)ccc1Br)=C2OC(=O)OCc1ccccc1 (single isomer, unassigned) [Example I-1-c-36]
≥ 80%: efficacy (spider mites killed) [1] | efficacy (caterpillars killed) [4] | efficacy (aphids killed) [2] | efficacy (beetle larvae killed) [3]

COCC1CCCC2(C1)OC(=O)C(c1cc(-c3ccc(Cl)cc3)ccc1C)=C2O (centres unmarked) [Example I-2-a-2]
≥ 80%: efficacy (spider mites killed) [1] | efficacy (aphids killed) [2] | efficacy (beetle larvae killed) [3]

CCOC(=O)OC1=C(c2c(Br)cc(C)cc2CC)C(=O)NC12CCCC(CCOC)C2 (single isomer, unassigned) [Example I-1-c-24]
≥ 80%: efficacy (spider mites killed) [1] | herbicidal activity against Avena sativa (Avena sativa) | herbicidal activity against Lolium multiflorum (Lolium multiflorum; 80 g/ha of a.i.) | herbicidal activity against Lolium multiflorum (Lolium multiflorum; 320 g/ha of a.i.) | herbicidal activity against Echinochloa crus-galli (Echinochloa crusgalli) | herbicidal activity against Echinochloa crusgalli (Echinochloa crusgalli) | herbicidal activity against Setaria viridis (Setaria viridis; 80 g/ha of a.i.) | herbicidal activity against Setaria viridis (Setaria viridis; 320 g/ha of a.i.) | efficacy (aphids killed) [2]

CCc1cc(C)cc(Br)c1C1=C(O)C2(CCCC(CCOC)C2)NC1=O (centres unmarked) [Example I-1-a-44]
≥ 80%: efficacy (spider mites killed) [1] | herbicidal activity against Avena sativa (Avena sativa) | herbicidal activity against Lolium multiflorum (Lolium multiflorum; 80 g/ha of a.i.) | herbicidal activity against Lolium multiflorum (Lolium multiflorum; 320 g/ha of a.i.) | herbicidal activity against Echinochloa crus-galli (Echinochloa crusgalli) | herbicidal activity against Echinochloa crusgalli (Echinochloa crusgalli) | herbicidal activity against Setaria viridis (Setaria viridis; 80 g/ha of a.i.) | herbicidal activity against Setaria viridis (Setaria viridis; 320 g/ha of a.i.) | efficacy (aphids killed) [2]

COCC1CCCC2(C1)NC(=O)C(c1cc(-c3ccc(Cl)cc3)ccc1Cl)=C2O (centres unmarked) [Example I-1-a-24]
≥ 80%: efficacy (caterpillars killed) [4] | efficacy (aphids killed) [2] | efficacy (beetle larvae killed) [3]

COCC1CCC2(CC1)OC(=O)C(c1c(C)cc(Cl)cc1C)=C2O (centres unmarked) [Example I-2-a-10]
≥ 80%: efficacy (spider mites killed) [1] | efficacy (aphids killed) [2]

COCC1CCC2(CC1)NC(=O)C(c1c(C)ccc(-c3ccc(Cl)cc3)c1C)=C2O (centres unmarked) [Example I-1-a-28]
≥ 80%: efficacy (spider mites killed) [1] | efficacy (caterpillars killed) [4] | efficacy (aphids killed) [2] | efficacy (beetle larvae killed) [3]

COCC1CCCC2(C1)NC(=O)C(c1c(C)ccc(-c3ccc(Cl)cc3)c1C)=C2O (single isomer, unassigned) [Example I-1-a-14]
≥ 80%: efficacy (spider mites killed) [1] | efficacy (caterpillars killed) [4] | efficacy (aphids killed) [2] | efficacy (beetle larvae killed) [3]

CCc1cc(Br)cc(CC)c1C1=C(O)C2(CCCC(COC)C2)OC1=O (centres unmarked) [Example I-2-a-7]
≥ 80%: efficacy (spider mites killed) [1]

COCC1CCC2(CC1)OC(=O)C(c1cc(C)c(C)cc1C)=C2O (centres unmarked) [Example I-2-a-11]
≥ 80%: efficacy (spider mites killed) [1] | efficacy (aphids killed) [2]

COCC1CCC2(CC1)OC(=O)C(c1c(C)cc(C)cc1C)=C2O (centres unmarked) [Example I-2-a-12]
≥ 80%: efficacy (spider mites killed) [1] | efficacy (caterpillars killed) [4] | efficacy (aphids killed) [2] | efficacy (beetle larvae killed) [3]
